Data reported in patent publication US20240408180A1, “IONIC LIQUIDS FOR DRUG DELIVERY” (PRESIDENT AND FELLOWS OF HARVARD COLLEGE, priority 2021, published 2024).
Some results were stated once for a whole list of compounds, not compound by compound.

Chains of the proteins cited; added tags and fusions are not shown. Residues count along the entry.
UniProt P01308, 25-54 limits assumed, species assumed: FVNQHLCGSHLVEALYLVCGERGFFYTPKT
UniProt P01308, 90-110 limits assumed, species assumed: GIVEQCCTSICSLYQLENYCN

Experiments:
insulin [1] = target: T1, insulin (Homo sapiens, UniProt P01308); experiment: Cold-chain stability of insulin-DES formulations (transmittance); assay type: physicochemical; conditions: 4 C, between Day 14 and 21
T1 construct: in this case insulin around 5.8 kDa; purchased Sigma Aldrich (St. Louis, MO)
Method: The final screening was performed to assess cold-chain stability and confirm monomer conformational stability. […] The stability of hexenoate-based formulations was further confirmed by assessing the protein's secondary structure through circular dichroism (CD). […] CD spectra integrity was also confirmed by measuring the high-tension voltage, which was maintained below 500 V for the relevant insulin CD wavelengths (FIG. 14).
(§1) The insulin-DES formations were first analyzed for initial transmittance to confirm that there was no insulin aggregation immediately after formulation preparation. Subsequently, formulations that passed initial screening were plated in a black-walled 96 well plate (replicates of three) and subjected to a stressed aging assay in which the plate was incubated at 37° C. with constant shaking. Absorbance readings were taken every 15 minutes for 50 hours to assess the change in transmittance over time. For cold chain stability, formulations were tested in a similar manner, without constant shaking, at 4° C. for 28 days.

insulin [2] = target: T1, insulin; experiment: Stressed aging test of insulin-DES formulations (transmittance); assay type: physicochemical; conditions: at any point during 50 hours at 37 C with constant shaking
Method: Successful dissolution of insulin was determined by the turbidity of the formulation, assessed by converting absorbance at 540 nm to transmittance.^16 The percent transmittance threshold for the successful formulation was set at 80% as this was the mean transmittance for the clinical comparator (Humalog). Low transmittance values are indicative of insoluble insulin aggregates. All but two formulations met this criterion (FIG. 13). To further screen the remaining DES formulations, a stressed aging test was performed to determine their stability for 50 hours at 37° C. with constant shaking.
as §1

Row | Substance | decrease in transmittance (insulin [1]) | decrease in transmittance (insulin [2])
1 | acetylcholinium priopionate DES [aCP] | greater than 10% | –
2 | acetylcholinium lactate DES [aCL] | – | greater than 10%
3 | cholinium propionate DES [CP] | greater than 10% | –
4 | cholinium lactate DES [CL] | – | greater than 10%
5 | acetylcholinium glycolate DES [aCG] | – | greater than 10%
